According to publication PMC9903539:
These are yes or no findings as the source states them, for the method shown. In cells and extracts the contact can be indirect. Some binding calls cover weakened binding; strength is not graded here.

How the values were obtained:
[1] = target: T1, CAV1 (mouse (endogenous in AML12)) (UniProt P49817); assay: condition: only cells treated with rMSA (600 μM) for 2 h; co-IP; as a1, but the AML12 hepatocytes were treated with rMSA (600 μM) for 2 h, in the absence or presence of 2 μM Dasatinib; CAV1 antibody on Protein A+G magnetic beads overnight at 4 °C; blot for EGFR
T1 sequence: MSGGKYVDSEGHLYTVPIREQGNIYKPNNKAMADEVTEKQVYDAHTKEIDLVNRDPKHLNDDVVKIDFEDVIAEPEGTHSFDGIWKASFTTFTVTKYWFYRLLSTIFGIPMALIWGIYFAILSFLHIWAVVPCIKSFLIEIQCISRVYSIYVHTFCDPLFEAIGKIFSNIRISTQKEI

[2] = target: T1, CAV1 (mouse (endogenous in AML12)); assay: co-IP; as a1, but the AML12 hepatocytes were treated with rMSA (600 μM) for 2 h, in the absence or presence of 2 μM Dasatinib; CAV1 antibody on Protein A+G magnetic beads overnight at 4 °C; blot for EGFR
[3] = target: T1, CAV1 (mouse (endogenous in AML12)); assay: co-IP; pre-cleared lysate of serum-starved AML12 hepatocytes, with or without 2 μM Dasatinib (SRC inhibitor) for 2 h, no rMSA; CAV1 antibody on Protein A+G magnetic beads overnight at 4 °C; blot for EGFR

binding [1]: no binding
binding [2]: binds
binding [3]: binds
Substance: epidermal growth factor receptor (EGFR) (from UniProt Q01279 25-1210)
